According to article doi:10.1101/2025.05.13.653700:
No constants are given. Whether binding was seen depends on the method and setting. Binding seen in cells or lysates may run through a third protein. Some entries that bind do so weakly or less than the wild type.

Protein sequences, listed by entry. Tags and fused reporters are not part of them.
UniProt Q9C0F3: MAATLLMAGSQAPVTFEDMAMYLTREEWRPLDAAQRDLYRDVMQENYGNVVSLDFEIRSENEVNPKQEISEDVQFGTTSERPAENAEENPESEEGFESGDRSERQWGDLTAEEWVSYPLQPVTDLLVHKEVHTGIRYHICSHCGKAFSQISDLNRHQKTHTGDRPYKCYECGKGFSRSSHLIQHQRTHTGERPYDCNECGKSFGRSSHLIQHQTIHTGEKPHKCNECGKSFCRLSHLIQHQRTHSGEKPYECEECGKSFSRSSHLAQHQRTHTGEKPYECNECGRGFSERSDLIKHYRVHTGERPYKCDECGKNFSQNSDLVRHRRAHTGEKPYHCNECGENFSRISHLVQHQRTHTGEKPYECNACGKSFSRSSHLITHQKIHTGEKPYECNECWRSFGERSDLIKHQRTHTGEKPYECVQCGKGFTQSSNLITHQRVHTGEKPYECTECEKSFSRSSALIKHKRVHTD
UniProt Q7L945: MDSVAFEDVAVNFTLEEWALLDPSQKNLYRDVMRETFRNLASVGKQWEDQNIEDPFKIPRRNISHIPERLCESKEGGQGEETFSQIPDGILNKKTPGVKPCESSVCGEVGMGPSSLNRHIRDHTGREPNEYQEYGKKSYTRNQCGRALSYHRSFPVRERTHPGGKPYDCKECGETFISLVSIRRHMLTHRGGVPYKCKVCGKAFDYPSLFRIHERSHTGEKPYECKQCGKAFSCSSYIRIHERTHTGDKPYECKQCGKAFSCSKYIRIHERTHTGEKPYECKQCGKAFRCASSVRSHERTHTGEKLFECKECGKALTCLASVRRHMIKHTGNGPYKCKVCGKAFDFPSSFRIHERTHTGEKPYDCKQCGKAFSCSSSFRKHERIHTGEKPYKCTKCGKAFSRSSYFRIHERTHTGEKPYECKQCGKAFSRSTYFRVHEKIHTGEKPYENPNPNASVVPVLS
UniProt Q13263: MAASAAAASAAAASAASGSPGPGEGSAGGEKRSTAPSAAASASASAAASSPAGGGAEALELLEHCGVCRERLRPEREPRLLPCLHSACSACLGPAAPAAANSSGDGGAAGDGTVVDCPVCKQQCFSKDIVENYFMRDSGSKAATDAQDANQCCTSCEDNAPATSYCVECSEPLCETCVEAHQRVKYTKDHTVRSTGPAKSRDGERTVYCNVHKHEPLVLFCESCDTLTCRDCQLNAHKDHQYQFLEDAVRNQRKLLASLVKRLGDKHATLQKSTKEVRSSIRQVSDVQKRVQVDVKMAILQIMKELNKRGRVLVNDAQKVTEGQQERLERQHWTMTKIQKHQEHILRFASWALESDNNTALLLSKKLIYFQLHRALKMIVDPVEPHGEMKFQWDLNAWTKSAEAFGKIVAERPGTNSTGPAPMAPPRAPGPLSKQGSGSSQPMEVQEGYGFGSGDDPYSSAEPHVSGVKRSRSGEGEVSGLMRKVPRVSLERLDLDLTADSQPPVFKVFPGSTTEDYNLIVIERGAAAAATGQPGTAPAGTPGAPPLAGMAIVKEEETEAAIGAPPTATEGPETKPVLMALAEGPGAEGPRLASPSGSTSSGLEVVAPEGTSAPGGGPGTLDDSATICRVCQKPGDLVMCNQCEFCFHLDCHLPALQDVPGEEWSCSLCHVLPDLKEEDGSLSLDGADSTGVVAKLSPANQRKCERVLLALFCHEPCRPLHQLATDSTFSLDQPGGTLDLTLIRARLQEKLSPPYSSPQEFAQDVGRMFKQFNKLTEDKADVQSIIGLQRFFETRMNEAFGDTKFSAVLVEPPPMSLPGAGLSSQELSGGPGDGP

Legend:
[1] = biological target: HA-tagged ZNF436 (co-immunoprecipitation construct, A673 cells) (human) (UniProt Q9C0F3); assay: co-IP
[2] = biological target: HA-tagged ZNF627 (co-immunoprecipitation construct, A673 cells) (UniProt Q7L945); assay: co-IP

binding [1]: no binding | binding [2]: binds
Substance: KAP1 (TRIM28), endogenous in A673 cells (from UniProt Q13263 1-835)
